Measurements reported in PubChem BioAssay AID1508597 (Cure First, 2020)
This is an unselected part of the about 2,100 reagents, in one setting of the screen. 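Calls flag viability under 80% in either arm, not effects specific to rucaparib; the reference for percent is not stated.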 Unmarked entries are inactive. A reagent listed more than once was tested more than once; the source does not tell the runs apart. Reagent sequences are not shown. Not given: the 100% reference.

Purpose: 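Knock-downs altering ovarian cancer cell survival with or without PARP inhibitor rucaparib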 (primary screen)
System: human ovarian carcinoma lines grown from tumours: OCI-P5x (papillary serous) and OCI-C5x (clear cell)
Knock-down reagent: siRNA pool against human genes, 1.25 pmol siRNA per well
Timing: 72 h or 96 h, depending on the cell culture
Challenge: rucaparib 20 µM (about IC30) or vehicle, present until read-out
Rucaparib or vehicle: Vehicle
Cell line: OCI-P5x (serous)
Read-out: 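ATP luminescence measured at 72 or 96 h according to the culture, then normalised and expressed as percent viability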
Scale: viability, normalised: higher = more viable cells remaining
Hit rule: 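Active when normalised viability falls below 80 percent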
Meaning of the calls: active = viability under 80%; inactive = viability 80% or more

gene knocked down	technical replicate	viability, normalised (%)
MAU2	1	60.1 (active)
MAU2	2	76 (active)
MAU2	3	88.8
PDZD2	1	94.4
PDZD2	2	88.1
PDZD2	3	86.9
CSNK1G3	1	66.9 (active)
CSNK1G3	2	71.3 (active)
CSNK1G3	3	78.4 (active)
MTF2	1	63 (active)
MTF2	2	61.7 (active)
MTF2	3	69.2 (active)
RPL5	1	48.1 (active)
RPL5	2	48.3 (active)
RPL5	3	48.9 (active)
CHMP2A	1	41.7 (active)
CHMP2A	2	45.6 (active)
CHMP2A	3	37.6 (active)
PSKH1	1	87.4
PSKH1	2	82.8
PSKH1	3	59.9 (active)
DHX34	1	57.4 (active)
DHX34	2	53 (active)
DHX34	3	56.1 (active)
PKMYT1	1	104
PKMYT1	2	94.9
PKMYT1	3	105
PTGR1	1	63.2 (active)
PTGR1	2	63.8 (active)
PTGR1	3	151
DDX17	1	94.6
DDX17	1	78.3 (active)
DDX17	2	89.9
DDX17	2	70.8 (active)
DDX17	3	83.4
DDX17	3	95.9
MARK4	1	65.1 (active)
MARK4	2	73.3 (active)
MARK4	3	68.7 (active)
FANCI	1	64.7 (active)
FANCI	2	65.1 (active)
FANCI	3	69.4 (active)
AKT2	1	94.9
AKT2	2	90.8
AKT2	3	91.4
CENPV	1	95.8
CENPV	2	59.2 (active)
CENPV	3	99.9
MED6	1	63 (active)
MED6	2	87
MED6	3	61.6 (active)
IRAK4	1	73.6 (active)
IRAK4	2	56.5 (active)
IRAK4	3	53.8 (active)
HNF1A	1	66.7 (active)
HNF1A	2	81.2
HNF1A	3	72 (active)

Reformatted: entries from further up.
gene knocked down,technical replicate,"viability, normalised (%)"
MAU2,2,76 (active)
MAU2,3,88.8
PDZD2,1,94.4
PDZD2,2,88.1
PDZD2,3,86.9
CSNK1G3,1,66.9 (active)
CSNK1G3,2,71.3 (active)
